{"source": "PubChem BioAssay AID1508597 (Cure First, 2020)", "assay": "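Genes whose silencing sensitises or protects ovarian cancer cells against rucaparib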 (primary screen)", "cell system": "human ovarian carcinoma lines grown from tumours: OCI-P5x (papillary serous) and OCI-C5x (clear cell)", "reagents": "siRNA pool against human genes, 1.25 pmol siRNA per well", "duration": "72 h or 96 h, depending on the cell culture", "treatment": "rucaparib 20 µM (about IC30) or vehicle, present until read-out", "rucaparib or vehicle": "Rucaparib", "cell line": "OCI-P5x (serous)", "detection": "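Luminescent ATP-based viability assay read 72 or 96 h after transfection, depending on culture, given as normalised percent viability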", "scale": "viability, normalised: higher = more viable cells remaining", "hit rule": "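Active when normalised viability falls below 80 percent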", "calls": "active = viability under 80%; inactive = viability 80% or more", "note": "This is a random part of the about 2,100 reagents, in one setting of the screen. 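Calls flag viability under 80% in either arm, not effects specific to rucaparib; the reference for percent is not stated.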 A number with no mark means an inactive call. Some reagents were tested in more than one well and are listed for each. Not stated in the record: the 100% reference."}
{"target gene":"PIF1 (PIF1 5'-to-3' DNA helicase)","PubChem SID":"SID405528423","technical replicate":"1","viability, normalised (%)":"68.8 (active)"}
{"target gene":"PIF1 (PIF1 5'-to-3' DNA helicase)","PubChem SID":"SID405528423","technical replicate":"2","viability, normalised (%)":"52.6 (active)"}
{"target gene":"PIF1 (PIF1 5'-to-3' DNA helicase)","PubChem SID":"SID405528423","technical replicate":"3","viability, normalised (%)":82}
{"target gene":"SMARCA5 (SNF2 related chromatin remodeling ATPase 5)","PubChem SID":"SID405527328","technical replicate":"1","viability, normalised (%)":"51.7 (active)"}
{"target gene":"SMARCA5 (SNF2 related chromatin remodeling ATPase 5)","PubChem SID":"SID405527328","technical replicate":"2","viability, normalised (%)":"57.2 (active)"}
{"target gene":"SMARCA5 (SNF2 related chromatin remodeling ATPase 5)","PubChem SID":"SID405527328","technical replicate":"3","viability, normalised (%)":"44.4 (active)"}
{"target gene":"TEX14 (testis expressed 14, intercellular bridge forming factor)","PubChem SID":"SID405528590","technical replicate":"1","viability, normalised (%)":96.6}
{"target gene":"TEX14 (testis expressed 14, intercellular bridge forming factor)","PubChem SID":"SID405528590","technical replicate":"2","viability, normalised (%)":92.3}
{"target gene":"TEX14 (testis expressed 14, intercellular bridge forming factor)","PubChem SID":"SID405528590","technical replicate":"3","viability, normalised (%)":86.7}
{"target gene":"TRIM28 (tripartite motif containing 28)","PubChem SID":"SID405526584","technical replicate":"1","viability, normalised (%)":98}
{"target gene":"TRIM28 (tripartite motif containing 28)","PubChem SID":"SID405526584","technical replicate":"1","viability, normalised (%)":"63 (active)"}
{"target gene":"TRIM28 (tripartite motif containing 28)","PubChem SID":"SID405526584","technical replicate":"2","viability, normalised (%)":"57 (active)"}
{"target gene":"TRIM28 (tripartite motif containing 28)","PubChem SID":"SID405526584","technical replicate":"2","viability, normalised (%)":105}
{"target gene":"TRIM28 (tripartite motif containing 28)","PubChem SID":"SID405526584","technical replicate":"3","viability, normalised (%)":103}
{"target gene":"TRIM28 (tripartite motif containing 28)","PubChem SID":"SID405526584","technical replicate":"3","viability, normalised (%)":"50.3 (active)"}
{"target gene":"BRDT (bromodomain testis associated)","PubChem SID":"SID405528046","technical replicate":"1","viability, normalised (%)":"75.3 (active)"}
{"target gene":"BRDT (bromodomain testis associated)","PubChem SID":"SID405528046","technical replicate":"1","viability, normalised (%)":"56.2 (active)"}
{"target gene":"BRDT (bromodomain testis associated)","PubChem SID":"SID405528046","technical replicate":"2","viability, normalised (%)":"56.6 (active)"}
{"target gene":"BRDT (bromodomain testis associated)","PubChem SID":"SID405528046","technical replicate":"2","viability, normalised (%)":82.2}
{"target gene":"BRDT (bromodomain testis associated)","PubChem SID":"SID405528046","technical replicate":"3","viability, normalised (%)":87.8}
{"target gene":"BRDT (bromodomain testis associated)","PubChem SID":"SID405528046","technical replicate":"3","viability, normalised (%)":"51.1 (active)"}
{"target gene":"TAF3 (TATA-box binding protein associated factor 3)","PubChem SID":"SID405526525","technical replicate":"1","viability, normalised (%)":"52.2 (active)"}
{"target gene":"TAF3 (TATA-box binding protein associated factor 3)","PubChem SID":"SID405526525","technical replicate":"2","viability, normalised (%)":"37.4 (active)"}
{"target gene":"TAF3 (TATA-box binding protein associated factor 3)","PubChem SID":"SID405526525","technical replicate":"3","viability, normalised (%)":"56.7 (active)"}
{"target gene":"NME1 (NME/NM23 nucleoside diphosphate kinase 1)","PubChem SID":"SID405527077","technical replicate":"1","viability, normalised (%)":120}
{"target gene":"NME1 (NME/NM23 nucleoside diphosphate kinase 1)","PubChem SID":"SID405527077","technical replicate":"1","viability, normalised (%)":"45.2 (active)"}
{"target gene":"NME1 (NME/NM23 nucleoside diphosphate kinase 1)","PubChem SID":"SID405527077","technical replicate":"2","viability, normalised (%)":116}
{"target gene":"NME1 (NME/NM23 nucleoside diphosphate kinase 1)","PubChem SID":"SID405527077","technical replicate":"2","viability, normalised (%)":"42.4 (active)"}
{"target gene":"NME1 (NME/NM23 nucleoside diphosphate kinase 1)","PubChem SID":"SID405527077","technical replicate":"3","viability, normalised (%)":"40 (active)"}
{"target gene":"NME1 (NME/NM23 nucleoside diphosphate kinase 1)","PubChem SID":"SID405527077","technical replicate":"3","viability, normalised (%)":100}
{"target gene":"BMPR1A (bone morphogenetic protein receptor type 1A)","PubChem SID":"SID405526340","technical replicate":"1","viability, normalised (%)":86}
{"target gene":"BMPR1A (bone morphogenetic protein receptor type 1A)","PubChem SID":"SID405526340","technical replicate":"1","viability, normalised (%)":"56.3 (active)"}
{"target gene":"BMPR1A (bone morphogenetic protein receptor type 1A)","PubChem SID":"SID405526340","technical replicate":"2","viability, normalised (%)":"59.1 (active)"}
{"target gene":"BMPR1A (bone morphogenetic protein receptor type 1A)","PubChem SID":"SID405526340","technical replicate":"2","viability, normalised (%)":"77.1 (active)"}
{"target gene":"BMPR1A (bone morphogenetic protein receptor type 1A)","PubChem SID":"SID405526340","technical replicate":"3","viability, normalised (%)":91.5}
{"target gene":"BMPR1A (bone morphogenetic protein receptor type 1A)","PubChem SID":"SID405526340","technical replicate":"3","viability, normalised (%)":"62.7 (active)"}

In a second layout: results already given
target gene,PubChem SID,technical replicate,"viability, normalised (%)"
NME1 (NME/NM23 nucleoside diphosphate kinase 1),SID405527077,2,42.4 (active)
NME1 (NME/NM23 nucleoside diphosphate kinase 1),SID405527077,3,40 (active)
NME1 (NME/NM23 nucleoside diphosphate kinase 1),SID405527077,3,100
BMPR1A (bone morphogenetic protein receptor type 1A),SID405526340,1,86
BMPR1A (bone morphogenetic protein receptor type 1A),SID405526340,1,56.3 (active)
